Measurements: patent US20160046678A1 (ZYNGENIA, published 2016)
No constants are given. Whether binding was seen depends on the method and setting. Some binding calls cover weakened binding; strength is not graded here.

Protein sequences, listed by entry. Tags and fused reporters are not part of them. Residues count along the entry.
UniProt P08069, residues 31-932: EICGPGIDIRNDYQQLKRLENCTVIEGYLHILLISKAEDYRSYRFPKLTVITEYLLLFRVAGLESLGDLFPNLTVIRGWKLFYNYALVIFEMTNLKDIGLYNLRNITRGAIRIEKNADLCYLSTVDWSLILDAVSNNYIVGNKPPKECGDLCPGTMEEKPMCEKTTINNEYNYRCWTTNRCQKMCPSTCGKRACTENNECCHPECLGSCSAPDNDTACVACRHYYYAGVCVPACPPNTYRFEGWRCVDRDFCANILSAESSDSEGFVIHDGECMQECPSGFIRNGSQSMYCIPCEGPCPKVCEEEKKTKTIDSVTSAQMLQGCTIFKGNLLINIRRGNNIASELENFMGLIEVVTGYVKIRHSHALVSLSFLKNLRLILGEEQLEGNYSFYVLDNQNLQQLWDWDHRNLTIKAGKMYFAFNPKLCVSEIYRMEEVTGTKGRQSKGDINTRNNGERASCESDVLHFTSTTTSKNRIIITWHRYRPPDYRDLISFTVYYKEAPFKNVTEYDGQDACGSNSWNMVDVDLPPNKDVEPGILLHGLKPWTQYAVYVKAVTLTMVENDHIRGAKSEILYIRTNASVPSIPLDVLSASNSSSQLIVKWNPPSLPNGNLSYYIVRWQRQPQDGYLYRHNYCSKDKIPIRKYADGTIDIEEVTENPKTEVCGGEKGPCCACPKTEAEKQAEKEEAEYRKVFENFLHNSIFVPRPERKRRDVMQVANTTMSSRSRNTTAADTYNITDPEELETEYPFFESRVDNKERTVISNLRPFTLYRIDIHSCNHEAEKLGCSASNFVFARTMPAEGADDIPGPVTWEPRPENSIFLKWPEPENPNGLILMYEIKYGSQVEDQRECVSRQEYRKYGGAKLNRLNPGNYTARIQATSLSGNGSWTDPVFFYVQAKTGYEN

B1: IGF617 (peptide)
peptide: IPLLCLEFPVLCFENE
B2: IGF1331 (peptide)
peptide: LEDWCLHLDFYQCLEAV
B3: IGF1280 (peptide)
peptide: EPRLCHNYPDFYQCMSFL
B4: IGF611 (peptide)
peptide: SAWEGYAWFDLQVESG
B5: IGF1290 (peptide)
peptide: YGLGCSQMDFYQCLDML
B6: IGF575 (peptide)
peptide: FAPPHPLCIEFQELCF
B7: IGF1273 (peptide)
peptide: RSLVCSEEEPFYLALCRLTH
B8: IGF623 (peptide)
peptide: QPWEGYKWLYEAA
B9: IGF1334 (peptide)
peptide: YIRECHELQNFTEGIHCLVTR
B10: IGF1271 (peptide)
peptide: FYNTCQFVGMEFYQCLDWL
B11: IGF581 (peptide)
peptide: RTVVPPLCLEFPELCF
B12: IGF605 (peptide)
peptide: DTWEGYLWLYAQTADA
B13: IGF585 (peptide)
peptide: VFLDAPELCKEFSELCFGYSDSL
B14: IGF1336 (peptide)
peptide: SWDPCFESDEFHMKLCVLMD
B15: IGF1328 (peptide)
peptide: VDVLCHHVDFYECMDRL
B16: IGF574 (peptide)
peptide: RITPNDLCQEFQELCF
B17: IGF604 (peptide)
peptide: RDEAEWEGYNWLYSQM
B18: IGF1276 (peptide)
peptide: LEHLCQTRDGFYELMCTLAL
B19: IGF1286 (peptide)
peptide: LTEPCSQHSMFYSMLCELAF
B20: IGF579 (peptide)
peptide: YRAERPELCKEFPELCFFENDWW
B21: IGF1277 (peptide)
peptide: AARWCDMQQHSFYECLQVL
B22: IGF1287 (peptide)
peptide: RDRVCHNKTFFHCLFSIFPDG
B23: IGF618 (peptide)
peptide: SYDYSQGEWEGYQWLY
B24: IGF573 (peptide)
peptide: LTSADLLCSEFRELCF
B25: IGF1337 (peptide)
peptide: LLSECYDKDFYECLGLL
B26: IGF619 (peptide)
peptide: HDSALMAEWEGYNWLY
B27: IGF1332 (peptide)
peptide: TMPTCEKLNFYECMNLL
B28: IGF592 (peptide)
peptide: IPGLCLEFPELCFHQW
B29: IGF1347 (peptide)
peptide: AAGSPLDDCYGYTGFYQGMCLLEL
B30: IGF616 (peptide)
peptide: DLWEGYLWFDSQVLGD
B31: IGF586 (peptide)
peptide: RFSESPPLCKEFPELCFWSPPFP
B32: IGF614 (peptide)
peptide: QQPNTWEGYSWLYSQV
B33: IGF1279 (peptide)
peptide: AVPKCPGWDFYTALECLSRT
B34: IGF1278 (peptide)
peptide: NALGCQEEWETLDQCLMRL
B35: IGF630 (peptide)
peptide: LSTDWSGDWEGYAWLY
B36: IGF1275 (peptide)
peptide: SVLGCDDVGFYQCLEFL
B37: IGF1341 (peptide)
peptide: WEHHCRRSHLDFYGCLSSI
B38: IGF1333 (peptide)
peptide: SLSICTYADFYECMDLL
B39: IGF1335 (peptide)
peptide: TFKDCAHIPGIDFCLWRL
B40: IGF584 (peptide)
peptide: IDRPPDLCKEFPELCF
B41: IGF1272 (peptide)
peptide: RDPVCETKDVFYQMLCTVAF
B42: IGF1283 (peptide)
peptide: SVPSCIDYYGDWFLCLAAP
B43: IGF602 (peptide)
peptide: FASGEYPPWEGYRWLY
B44: IGF1281 (peptide)
peptide: ASQTCIGMDFYSGLECLLGW
B45: IGF613 (peptide)
peptide: QWGHKSEQWEGYSWLY
B46: IGF633 (peptide)
peptide: LLASEWEGYEWLYGQI
B47: IGF1270 (peptide)
peptide: ALPECQDLMFYECLFTL
B48: IGF580 (peptide)
peptide: LCREFIELCFDIETEV
B49: IGF1282 (peptide)
peptide: WVEECHNLHWDLKHCLMHQ
B50: IGF603 (peptide)
peptide: WGDDHWEGYDWLYAQT
B51: IGF1339 (peptide)
peptide: AAANCHWPDEALQELCRYFA
B52: IGF582 (peptide)
peptide: LYTPQSMCAEFTELCF
B53: IGF1292 (peptide)
peptide: NPATCYQKSYQFEQCLMYL
B54: IGF589 (peptide)
peptide: RDFTYDTDWEGYSWLY
B55: IGF577 (peptide)
peptide: VGKEVFRLCKEFPELCFYPAISQ
B56: IGF1338 (peptide)
peptide: YQDMCEDMSFYECLEVL
B57: IGF1285 (peptide)
peptide: SNGSCHIVDFYGWFQCQTSA
B58: IGF1291 (peptide)
peptide: DVSHCHIMFWDFQQCLEYL
B59: IGF578 (peptide)
peptide: LRFESPQLCKEFPELCFFESNGW
B60: IGF1340 (peptide)
peptide: TGICENPDEFYRQLCLLVE
B61: IGF1284 (peptide)
peptide: NNTLCRGVPTFEECVFIL
B62: IGF607 (peptide)
peptide: YTRSLGDPWEGYSWLY
B63: IGF612 (peptide)
peptide: YSIQDHGAWPGYDWLY
B64: IGF583 (peptide)
peptide: GLVQHNLCLEFVELCF
B65: IGF1330 (peptide)
peptide: GPKECIGVPNFDLCMAML
B66: IGF1329 (peptide)
peptide: WLSQCEAKEIDFYMCLAGQAG
B67: IGF596 (peptide)
peptide: EPWEGYSWLY
B68: IGF572 (peptide)
peptide: LCKEFPELCFDERDKK
B69: IGF600 (peptide)
peptide: PLWEGYSWLYSQEAGN
B70: IGF625 (peptide)
peptide: PAASAWEGYKWLYDQV

molecular target: IGF1R (UniProt P08069); experiment: MRD identification, Example 48

binding | Binder
binds | B1
binds | B2
binds | B3
binds | B4
binds | B5
binds | B6
binds | B7
binds | B8
binds | B9
binds | B10
binds | B11
binds | B12
binds | B13
binds | B14
binds | B15
binds | B16
binds | B17
binds | B18
binds | B19
binds | B20
binds | B21
binds | B22
binds | B23
binds | B24

binding | Binder
binds | B25
binds | B26
binds | B27
binds | B28
binds | B29
binds | B30
binds | B31
binds | B32
binds | B33
binds | B34
binds | B35
binds | B36
binds | B37
binds | B38
binds | B39
binds | B40
binds | B41
binds | B42
binds | B43
binds | B44
binds | B45
binds | B46
binds | B47
binds | B48

binding | Binder
binds | B49
binds | B50
binds | B51
binds | B52
binds | B53
binds | B54
binds | B55
binds | B56
binds | B57
binds | B58
binds | B59
binds | B60
binds | B61
binds | B62
binds | B63
binds | B64
binds | B65
binds | B66
binds | B67
binds | B68
binds | B69
binds | B70
